Patent US20130096072A1 (Genentech, published 2013)
These are yes or no findings as the source states them, for the method shown. Some binding calls cover weakened binding; strength is not graded here.

By UniProt entry, the sequences of proteins in these tests, tags left out. Where a name states a change or a piece, a line headed by the entry shows the natural chain unless it says otherwise.
UniProt P14210: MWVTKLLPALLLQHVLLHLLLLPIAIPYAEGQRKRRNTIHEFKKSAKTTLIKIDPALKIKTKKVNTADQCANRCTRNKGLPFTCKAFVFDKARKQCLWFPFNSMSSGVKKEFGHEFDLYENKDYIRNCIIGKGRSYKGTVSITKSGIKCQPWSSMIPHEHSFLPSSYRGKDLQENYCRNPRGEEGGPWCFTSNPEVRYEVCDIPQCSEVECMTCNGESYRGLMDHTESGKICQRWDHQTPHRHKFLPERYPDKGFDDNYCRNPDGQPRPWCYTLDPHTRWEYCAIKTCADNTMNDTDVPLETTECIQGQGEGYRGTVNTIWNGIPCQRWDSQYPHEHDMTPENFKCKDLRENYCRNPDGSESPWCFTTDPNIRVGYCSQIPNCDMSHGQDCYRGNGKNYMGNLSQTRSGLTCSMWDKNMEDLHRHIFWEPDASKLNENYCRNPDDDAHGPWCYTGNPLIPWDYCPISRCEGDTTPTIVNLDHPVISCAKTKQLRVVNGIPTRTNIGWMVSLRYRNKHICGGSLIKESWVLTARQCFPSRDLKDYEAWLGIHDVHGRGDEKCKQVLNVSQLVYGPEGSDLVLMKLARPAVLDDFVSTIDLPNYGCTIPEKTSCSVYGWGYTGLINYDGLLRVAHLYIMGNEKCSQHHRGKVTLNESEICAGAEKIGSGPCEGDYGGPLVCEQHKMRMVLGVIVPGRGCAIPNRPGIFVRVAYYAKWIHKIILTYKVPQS

Assays:
[1] = target: scHGF β-chain (zymogen-like HGF β, residues Asn479 to Ser728, R494E, C-terminal His-tag) (human) (UniProt P14210); experiment: activity-based phage sorting: library with 0.5 µM scHGF β in solution, complex captured on a Met Sema-PSI coated plate; the clones as a group are plotted in FIG. 9B
[2] = target: scHGF β-chain (zymogen-like HGF β, residues Asn479 to Ser728, R494E, C-terminal His-tag) (human) (UniProt P14210); experiment: BLI scHGF β activation/Met binding assay
[3] = target: scHGF β-chain (zymogen-like HGF β, residues Asn479 to Ser728, R494E, C-terminal His-tag) (human) (UniProt P14210); experiment: biolayer interferometry: biotinylated Met Sema/PSI on streptavidin tips, 0.5 µM scHGF β in solution, peptide titrated; steady-state surface response of scHGF β binding to Met
HGF β V495G (human) [4] = target: HGF β V495G (human) (UniProt P14210); experiment: X-ray crystal structure of the ternary complex
HGF β V495G (human) [5] = target: HGF β V495G (human) (UniProt P14210); experiment: X-ray crystal structure (FIG. 13)
HGF β V495G (human) [6] = target: HGF β V495G (human) (UniProt P14210); experiment: X-ray crystal structure (FIG. 8)

| Binder | binding [1] | further results |
| --- | --- | --- |
| IVDGYPWWMDV (D-aspartic acid at position 3; C-terminal amide) [IVdG.14 peptide] |  | binding [2]: binds; binding [3]: binds |
| IVGGCPYWMDREECL [ZAP.11] | binds |  |
| IIGGDPYWYPHPGTV [ZAP.04] | binds |  |
| IVGGDPYWVPHPGDA [ZAP.01] | binds |  |
| IIGGCPYWMDREECI (intramolecular disulfide bond between Cys-5 and Cys-14; C-terminal amide) [ZAP.03 (cyclic 15-mer synthetic peptide)] |  | binding (HGF β V495G (human) [4]): binds; binding (HGF β V495G (human) [5]): binds |
| IVGGYPWWMDV (C-terminal amide) [IVGG.14 peptide] |  | binding (HGF β V495G (human) [4]): binds; binding (HGF β V495G (human) [6]): binds |

Second part, led by results:

| binding [1] | Binder | further results |
| --- | --- | --- |
| binds | IIGGDPVWDITYTYA [ZAP.13] |  |
| binds | IVGGDPWWVDHMYLT [ZAP.86] |  |
| binds | IIGGDPWWTPHPSFV [ZAP.30] |  |
